Experimental findings from publication PMC10884747 are described below.

Amino acid sequences for entries named in this document (tags omitted).
UniProt O95758: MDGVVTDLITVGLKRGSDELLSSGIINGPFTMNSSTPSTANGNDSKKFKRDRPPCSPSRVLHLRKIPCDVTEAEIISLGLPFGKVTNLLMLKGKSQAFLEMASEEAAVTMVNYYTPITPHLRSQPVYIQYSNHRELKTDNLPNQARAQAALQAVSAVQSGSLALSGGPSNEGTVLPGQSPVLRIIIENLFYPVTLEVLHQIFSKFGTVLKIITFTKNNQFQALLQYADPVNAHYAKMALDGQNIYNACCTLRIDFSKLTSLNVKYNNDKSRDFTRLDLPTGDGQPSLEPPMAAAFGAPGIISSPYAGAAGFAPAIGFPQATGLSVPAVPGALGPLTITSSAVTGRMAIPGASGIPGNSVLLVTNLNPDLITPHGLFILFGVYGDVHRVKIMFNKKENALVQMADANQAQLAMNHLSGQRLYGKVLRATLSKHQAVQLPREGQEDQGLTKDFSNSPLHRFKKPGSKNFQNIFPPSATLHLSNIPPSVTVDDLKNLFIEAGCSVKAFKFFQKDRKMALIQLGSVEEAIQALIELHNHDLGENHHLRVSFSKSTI
UniProt O00425: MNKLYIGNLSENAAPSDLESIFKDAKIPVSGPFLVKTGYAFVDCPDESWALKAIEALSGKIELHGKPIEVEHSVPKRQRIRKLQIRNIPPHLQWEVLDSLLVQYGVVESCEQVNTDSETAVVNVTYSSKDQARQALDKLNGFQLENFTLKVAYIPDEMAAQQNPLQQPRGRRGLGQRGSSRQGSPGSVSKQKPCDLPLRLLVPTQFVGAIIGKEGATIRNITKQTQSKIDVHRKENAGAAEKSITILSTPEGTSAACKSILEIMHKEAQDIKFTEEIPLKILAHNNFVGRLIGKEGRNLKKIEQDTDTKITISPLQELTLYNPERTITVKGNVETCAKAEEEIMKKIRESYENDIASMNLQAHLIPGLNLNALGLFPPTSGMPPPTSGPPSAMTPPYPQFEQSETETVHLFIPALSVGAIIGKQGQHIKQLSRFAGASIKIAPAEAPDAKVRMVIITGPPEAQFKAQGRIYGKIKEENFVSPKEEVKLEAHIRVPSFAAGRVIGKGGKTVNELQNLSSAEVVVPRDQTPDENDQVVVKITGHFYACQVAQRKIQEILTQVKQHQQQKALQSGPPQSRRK

No constants are given. Whether binding was seen depends on the method and setting. Binding seen in cells or lysates may run through a third protein. Some entries that bind do so weakly or less than the wild type.

Experiment [1] has as its target FLAG-tagged PTBP3 (exogenous) (UniProt O95758). Nature of the experiment: co-IP; immunoprecipitation with anti-Flag antibody (PTBP3 FLAG tag) from 786-O and ACHN cells, anti-IgG as negative control; Western blot for IGF2BP3. A general note: A western blot detects proteins with antibodies after separation by electrophoresis.
The target of experiment [2] is Polypyrimidine tract-binding protein 3 (PTBP3), endogenous (human (endogenous in 786-O and ACHN)) (UniProt O95758). Nature of the experiment: co-IP; immunoprecipitation with anti-PTBP3 or anti-IGF2BP3 antibody from 786-O and ACHN cells, anti-IgG as negative control; endogenous proteins, Western blot.

With “Insulin-like growth factor 2 (IGF2) mRNA-binding protein 3 (IGF2BP3), endogenous (from UniProt O00425 1-579)”, the binding entry in experiment [1] and in experiment [2] was “binds” each time.
